Reference: article PMC8206348
These are yes or no findings as the source states them, for the method shown. In cells and extracts the contact can be indirect. Some results given as binding are weak or reduced against the parent protein; the word gives no strength. For some of these results: Sequences can lack the tags named with a protein. Blank lines part the entries; values can stand above or below the binder they belong to.

How the values were obtained:
Assay in all cases: co-IP; anti-GFP or anti-FLAG antibodies pre-bound to agarose beads, overnight at 4 °C; lysates of transfected HeLa cells in NET2 buffer (50 mM Tris-HCl pH 7.4, 150 mM NaCl, 0.05% Nonidet P-40); western blot; also from RNase A treated lysates (Fig. 1d)
TSSC4 ΔHom2-GFP (human) = molecular target: T1, TSSC4 ΔHom2-GFP (human) (UniProt Q9Y5U2)
T1 sequence: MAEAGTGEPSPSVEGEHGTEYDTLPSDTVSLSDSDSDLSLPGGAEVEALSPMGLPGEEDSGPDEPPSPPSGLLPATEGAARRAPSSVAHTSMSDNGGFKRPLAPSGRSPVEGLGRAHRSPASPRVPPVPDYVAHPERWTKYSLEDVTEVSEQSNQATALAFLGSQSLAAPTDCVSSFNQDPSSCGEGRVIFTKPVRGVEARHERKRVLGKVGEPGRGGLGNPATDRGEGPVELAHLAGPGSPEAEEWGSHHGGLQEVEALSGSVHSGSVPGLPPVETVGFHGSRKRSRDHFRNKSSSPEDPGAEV

[1] = molecular target: T2, TSSC4 Δ51–100-GFP (human) (UniProt Q9Y5U2)
T2 sequence: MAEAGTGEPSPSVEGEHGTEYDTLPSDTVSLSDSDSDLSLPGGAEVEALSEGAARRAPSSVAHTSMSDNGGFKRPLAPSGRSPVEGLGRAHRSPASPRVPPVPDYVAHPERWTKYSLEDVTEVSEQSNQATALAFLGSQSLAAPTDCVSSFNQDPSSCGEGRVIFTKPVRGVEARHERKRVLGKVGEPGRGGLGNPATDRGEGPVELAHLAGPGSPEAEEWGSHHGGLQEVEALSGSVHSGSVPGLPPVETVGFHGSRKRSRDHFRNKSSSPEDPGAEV

[2] = molecular target: T3, TSSC4 Δ151–200-GFP (human) (UniProt Q9Y5U2)
T3 sequence: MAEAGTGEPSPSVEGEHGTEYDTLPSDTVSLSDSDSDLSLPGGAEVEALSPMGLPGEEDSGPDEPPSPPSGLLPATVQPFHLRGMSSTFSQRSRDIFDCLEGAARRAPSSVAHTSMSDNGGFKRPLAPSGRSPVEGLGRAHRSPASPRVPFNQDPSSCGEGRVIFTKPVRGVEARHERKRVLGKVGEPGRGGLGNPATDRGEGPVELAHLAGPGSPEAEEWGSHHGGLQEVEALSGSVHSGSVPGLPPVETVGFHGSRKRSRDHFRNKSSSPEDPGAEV

TSSC4-GFP (human) = TSSC4-GFP (human) (UniProt Q9Y5U2)
TSSC4 ΔHom4-GFP (human) = molecular target: T4, TSSC4 ΔHom4-GFP (human) (UniProt Q9Y5U2)
T4 sequence: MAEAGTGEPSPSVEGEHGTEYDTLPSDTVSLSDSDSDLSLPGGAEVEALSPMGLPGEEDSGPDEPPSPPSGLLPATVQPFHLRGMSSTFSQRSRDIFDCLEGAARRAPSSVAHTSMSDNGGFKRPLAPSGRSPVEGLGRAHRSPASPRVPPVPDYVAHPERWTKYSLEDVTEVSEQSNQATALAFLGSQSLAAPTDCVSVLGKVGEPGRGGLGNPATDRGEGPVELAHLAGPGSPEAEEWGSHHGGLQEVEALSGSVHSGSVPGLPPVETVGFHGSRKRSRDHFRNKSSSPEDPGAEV

[3] = molecular target: T5, TSSC4 Δ201–250-GFP (human) (UniProt Q9Y5U2)
T5 sequence: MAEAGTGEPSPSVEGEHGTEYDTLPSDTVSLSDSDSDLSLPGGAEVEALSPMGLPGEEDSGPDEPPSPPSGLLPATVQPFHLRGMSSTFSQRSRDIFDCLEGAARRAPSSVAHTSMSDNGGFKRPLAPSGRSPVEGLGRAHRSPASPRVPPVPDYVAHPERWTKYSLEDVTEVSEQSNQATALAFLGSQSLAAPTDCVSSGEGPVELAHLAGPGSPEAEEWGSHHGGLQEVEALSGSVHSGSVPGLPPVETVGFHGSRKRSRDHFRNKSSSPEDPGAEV

[4] = molecular target: TSSC4-GFP (human), Q9Y5U2; conditions: remark: other sources report otherwise

B1: PRPF6 (protein, UniProt O94906 1-941)
chain: MNKKKKPFLGMPAPLGYVPGLGRGATGFTTRSDIGPARDANDPVDDRHAPPGKRTVGDQMKKNQAADDDDEDLNDTNYDEFNGYAGSLFSSGPYEKDDEEADAIYAALDKRMDERRKERREQREKEEIEKYRMERPKIQQQFSDLKRKLAEVTEEEWLSIPEVGDARNKRQRNPRYEKLTPVPDSFFAKHLQTGENHTSVDPRQTQFGGLNTPYPGGLNTPYPGGMTPGLMTPGTGELDMRKIGQARNTLMDMRLSQVSDSVSGQTVVDPKGYLTDLNSMIPTHGGDINDIKKARLLLKSVRETNPHHPPAWIASARLEEVTGKLQVARNLIMKGTEMCPKSEDVWLEAARLQPGDTAKAVVAQAVRHLPQSVRIYIRAAELETDIRAKKRVLRKALEHVPNSVRLWKAAVELEEPEDARIMLSRAVECCPTSVELWLALARLETYENARKVLNKARENIPTDRHIWITAAKLEEANGNTQMVEKIIDRAITSLRANGVEINREQWIQDAEECDRAGSVATCQAVMRAVIGIGIEEEDRKHTWMEDADSCVAHNALECARAIYAYALQVFPSKKSVWLRAAYFEKNHGTRESLEALLQRAVAHCPKAEVLWLMGAKSKWLAGDVPAARSILALAFQANPNSEEIWLAAVKLESENDEYERARRLLAKARSSAPTARVFMKSVKLEWVQDNIRAAQDLCEEALRHYEDFPKLWMMKGQIEEQKEMMEKAREAYNQGLKKCPHSTPLWLLLSRLEEKIGQLTRARAILEKSRLKNPKNPGLWLESVRLEYRAGLKNIANTLMAKALQECPNSGILWSEAIFLEARPQRRTKSVDALKKCEHDPHVLLAVAKLFWSQRKITKAREWFHRTVKIDSDLGDAWAFFYKFELQHGTEEQQEEVRKRCESAEPRHGELWCAVSKDIANWQKKIGDILRLVAGRIKNTF
binding (TSSC4 ΔHom2-GFP (human)): no binding | binding [1]: no binding | binding [2]: binds

B3: PLRG1 (protein, UniProt O43660 1-514)
chain: MVEEVQKHSVHTLVFRSLKRTHDMFVADNGKPVPLDEESHKRKMAIKLRNEYGPVLHMPTSKENLKEKGPQNATDSYVHKQYPANQGQEVEYFVAGTHPYPPGPGVALTADTKIQRMPSESAAQSLAVALPLQTKADANRTAPSGSEYRHPGASDRPQPTAMNSIVMETGNTKNSALMAKKAPTMPKPQWHPPWKLYRVISGHLGWVRCIAVEPGNQWFVTGSADRTIKIWDLASGKLKLSLTGHISTVRGVIVSTRSPYLFSCGEDKQVKCWDLEYNKVIRHYHGHLSAVYGLDLHPTIDVLVTCSRDSTARIWDVRTKASVHTLSGHTNAVATVRCQAAEPQIITGSHDTTIRLWDLVAGKTRVTLTNHKKSVRAVVLHPRHYTFASGSPDNIKQWKFPDGSFIQNLSGHNAIINTLTVNSDGVLVSGADNGTMHLWDWRTGYNFQRVHAAVQPGSLDSESGIFACAFDQSESRLLTAEADKTIKVYREDDTATEETHPVSWKPEIIKRKRF
binding (TSSC4-GFP (human)): binds | binding (TSSC4 ΔHom4-GFP (human)): binds weakly | binding [2]: binds | binding [3]: binds weakly

B4: CD2BP2 (protein, UniProt O95400 1-341)
chain: MPKRKVTFQGVGDEEDEDEIIVPKKKLVDPVAGSGGPGSRFKGKHSLDSDEEEDDDDGGSSKYDILASEDVEGQEAATLPSEGGVRITPFNLQEEMEEGHFDADGNYFLNRDAQIRDSWLDNIDWVKIRERPPGQRQASDSEEEDSLGQTSMSAQALLEGLLELLLPRETVAGALRRLGARGGGKGRKGPGQPSSPQRLDRLSGLADQMVARGNLGVYQETRERLAMRLKGLGCQTLGPHNPTPPPSLDMFAEELAEEELETPTPTQRGEAESRGDGLVDVMWEYKWENTGDAELYGPFTSAQMQTWVSEGYFPDGVYCRKLDPPGGQFYNSKRIDFDLYT
binding (TSSC4 ΔHom2-GFP (human)): no binding | binding [1]: no binding | binding [2]: binds

B5: DDX23, Q9BUQ8 1-820 (protein)
chain: MAGELADKKDRDASPSKEERKRSRTPDRERDRDRDRKSSPSKDRKRHRSRDRRRGGSRSRSRSRSKSAERERRHKERERDKERDRNKKDRDRDKDGHRRDKDRKRSSLSPGRGKDFKSRKDRDSKKDEEDEHGDKKPKAQPLSLEELLAKKKAEEEAEAKPKFLSKAEREAEALKRRQQEVEERQRMLEEERKKRKQFQDLGRKMLEDPQERERRERRERMERETNGNEDEEGRQKIREEKDKSKELHAIKERYLGGIKKRRRTRHLNDRKFVFEWDASEDTSIDYNPLYKERHQVQLLGRGFIAGIDLKQQKREQSRFYGDLMEKRRTLEEKEQEEARLRKLRKKEAKQRWDDRHWSQKKLDEMTDRDWRIFREDYSITTKGGKIPNPIRSWKDSSLPPHILEVIDKCGYKEPTPIQRQAIPIGLQNRDIIGVAETGSGKTAAFLIPLLVWITTLPKIDRIEESDQGPYAIILAPTRELAQQIEEETIKFGKPLGIRTVAVIGGISREDQGFRLRMGCEIVIATPGRLIDVLENRYLVLSRCTYVVLDEADRMIDMGFEPDVQKILEHMPVSNQKPDTDEAEDPEKMLANFESGKHKYRQTVMFTATMPPAVERLARSYLRRPAVVYIGSAGKPHERVEQKVFLMSESEKRKKLLAILEQGFDPPIIIFVNQKKGCDVLAKSLEKMGYNACTLHGGKGQEQREFALSNLKAGAKDILVATDVAGRGIDIQDVSMVVNYDMAKNIEDYIHRIGRTGRAGKSGVAITFLTKEDSAVFYELKQAILESPVSSCPPELANHPDAQHKPGTILTKKRREETIFA
binding [4]: binds

Continued, values first:

binding (TSSC4-GFP (human)): binds | binding (TSSC4 ΔHom2-GFP (human)): no binding | binding [1]: no binding | binding [2]: binds
B2: SNRNP40 (protein, UniProt Q96DI7 1-357)
chain: MIEQQKRKGPELPLVPVKRQRHELLLGAGSGPGAGQQQATPGALLQAGPPRCSSLQAPIMLLSGHEGEVYCCKFHPNGSTLASAGFDRLILLWNVYGDCDNYATLKGHSGAVMELHYNTDGSMLFSASTDKTVAVWDSETGERVKRLKGHTSFVNSCYPARRGPQLVCTGSDDGTVKLWDIRKKAAIQTFQNTYQVLAVTFNDTSDQIISGGIDNDIKVWDLRQNKLTYTMRGHADSVTGLSLSSEGSYLLSNAMDNTVRVWDVRPFAPKERCVKIFQGNVHNFEKNLLRCSWSPDGSKIAAGSADRFVYVWDTTSRRILYKLPGHAGSINEVAFHPDEPIIISASSDKRLYMGEIQ

binding (TSSC4-GFP (human)): binds
B6: TXNL4A (protein, UniProt P83876 1-142)
chain: MSYMLPHLHNGWQVDQAILSEEDRVVVIRFGHDWDPTCMKMDEVLYSIAEKVKNFAVIYLVDITEVPDFNKMYELYDPCTVMFFFRNKHIMIDLGTGNNNKINWAMEDKQEMVDIIETVYRGARKGRGLVVSPKDYSTKYRY
